Measured values reported in the M2OR odorant receptor database.
The entries are a selection whose mix differs from that of the whole data set. The calls were merged from several studies; some rest on single wells. Some of the results follow.

Experiments:
Conditions in all cases: stereoisomer not certain
O5AU1 = test system: T1, O5AU1
T1 sequence (whole entry): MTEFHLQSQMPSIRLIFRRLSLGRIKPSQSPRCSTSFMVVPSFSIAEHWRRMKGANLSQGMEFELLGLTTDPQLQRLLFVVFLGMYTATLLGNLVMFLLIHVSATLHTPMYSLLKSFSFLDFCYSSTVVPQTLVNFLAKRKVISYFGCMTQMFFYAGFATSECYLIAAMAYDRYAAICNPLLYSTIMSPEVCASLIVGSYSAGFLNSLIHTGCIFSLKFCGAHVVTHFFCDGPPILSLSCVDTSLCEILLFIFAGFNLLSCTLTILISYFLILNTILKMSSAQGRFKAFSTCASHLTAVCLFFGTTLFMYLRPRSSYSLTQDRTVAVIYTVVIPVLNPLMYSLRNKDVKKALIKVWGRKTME
In short: (§1)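 Transient luciferase assays in mammalian cell lines were common, though methods varied by source. The values come from published papers and their supplementary material, with extra details from the original authors when needed. Responsive refers to a measured signal the original authors judged statistically different from baseline, and non-responsive (inactive) to the remainder.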

O5H14 = test system: T2, O5H14
T2 sequence (whole entry): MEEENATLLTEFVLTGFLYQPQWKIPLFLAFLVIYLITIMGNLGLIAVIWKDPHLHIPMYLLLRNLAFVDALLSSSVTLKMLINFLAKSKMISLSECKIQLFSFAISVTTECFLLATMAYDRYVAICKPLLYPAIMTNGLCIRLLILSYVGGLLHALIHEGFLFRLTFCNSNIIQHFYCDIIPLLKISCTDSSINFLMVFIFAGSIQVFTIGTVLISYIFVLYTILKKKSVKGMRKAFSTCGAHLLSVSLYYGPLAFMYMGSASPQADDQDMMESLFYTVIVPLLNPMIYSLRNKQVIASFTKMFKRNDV
In short: as §1

O6C68 = test system: T3, O6C68
T3 sequence (whole entry): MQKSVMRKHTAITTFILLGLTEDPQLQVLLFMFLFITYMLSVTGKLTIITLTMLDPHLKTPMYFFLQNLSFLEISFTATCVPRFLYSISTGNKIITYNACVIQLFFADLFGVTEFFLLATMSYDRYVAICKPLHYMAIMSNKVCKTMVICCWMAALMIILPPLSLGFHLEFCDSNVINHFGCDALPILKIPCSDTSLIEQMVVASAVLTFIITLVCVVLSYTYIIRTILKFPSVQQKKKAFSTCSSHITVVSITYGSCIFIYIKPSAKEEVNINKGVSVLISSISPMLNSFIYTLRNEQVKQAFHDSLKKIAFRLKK
In short: as §1

O6C70 = test system: T4, O6C70
T4 sequence (whole entry): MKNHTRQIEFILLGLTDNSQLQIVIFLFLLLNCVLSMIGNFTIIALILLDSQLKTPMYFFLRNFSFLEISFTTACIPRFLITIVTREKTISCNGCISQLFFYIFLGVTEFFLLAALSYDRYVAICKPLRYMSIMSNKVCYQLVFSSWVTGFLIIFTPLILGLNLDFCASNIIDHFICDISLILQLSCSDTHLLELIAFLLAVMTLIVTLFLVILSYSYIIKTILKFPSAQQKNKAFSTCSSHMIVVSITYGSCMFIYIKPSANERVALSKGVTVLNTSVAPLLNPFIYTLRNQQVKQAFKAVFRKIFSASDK
In short: as §1

O7E24 = test system: T5, O7E24
T5 sequence (whole entry): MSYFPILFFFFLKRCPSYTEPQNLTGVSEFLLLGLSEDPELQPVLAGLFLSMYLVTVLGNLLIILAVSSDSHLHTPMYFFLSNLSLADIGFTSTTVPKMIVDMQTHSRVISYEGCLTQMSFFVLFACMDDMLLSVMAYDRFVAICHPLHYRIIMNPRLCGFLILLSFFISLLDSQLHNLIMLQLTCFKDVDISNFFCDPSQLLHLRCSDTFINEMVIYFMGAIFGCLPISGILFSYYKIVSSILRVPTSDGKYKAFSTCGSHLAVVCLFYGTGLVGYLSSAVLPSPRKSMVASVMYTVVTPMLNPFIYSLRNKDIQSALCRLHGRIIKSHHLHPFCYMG
In short: as §1

OR10A3 (Homo sapiens) = molecular target: T6, OR10A3 (Homo sapiens) (UniProt P58181)
T6 sequence (whole entry): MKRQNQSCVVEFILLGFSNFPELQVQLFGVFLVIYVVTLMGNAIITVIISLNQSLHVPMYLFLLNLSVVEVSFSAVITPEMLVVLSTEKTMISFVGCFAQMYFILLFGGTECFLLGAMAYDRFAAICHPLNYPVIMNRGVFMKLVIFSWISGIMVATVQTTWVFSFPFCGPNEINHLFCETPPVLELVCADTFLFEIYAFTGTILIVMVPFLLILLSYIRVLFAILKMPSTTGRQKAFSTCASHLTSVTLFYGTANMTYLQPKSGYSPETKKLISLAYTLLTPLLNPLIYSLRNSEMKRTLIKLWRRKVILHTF
In short: as §1

OR10A5 (Homo sapiens) = molecular target: T7, OR10A5 (Homo sapiens) (UniProt Q9H207)
T7 sequence (whole entry): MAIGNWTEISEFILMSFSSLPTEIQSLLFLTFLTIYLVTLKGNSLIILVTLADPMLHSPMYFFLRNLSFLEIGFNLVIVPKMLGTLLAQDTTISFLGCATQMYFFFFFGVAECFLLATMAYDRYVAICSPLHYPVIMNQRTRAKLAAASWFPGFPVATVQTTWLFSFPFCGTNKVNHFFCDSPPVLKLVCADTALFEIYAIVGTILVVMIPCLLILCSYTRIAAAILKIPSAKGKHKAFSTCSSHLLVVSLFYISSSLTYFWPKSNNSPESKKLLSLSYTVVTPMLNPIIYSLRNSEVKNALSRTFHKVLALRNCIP
In short: as §1

OR10A6 (Homo sapiens) = molecular target: T8, OR10A6 (Homo sapiens) (UniProt Q8NH74)
T8 sequence (whole entry): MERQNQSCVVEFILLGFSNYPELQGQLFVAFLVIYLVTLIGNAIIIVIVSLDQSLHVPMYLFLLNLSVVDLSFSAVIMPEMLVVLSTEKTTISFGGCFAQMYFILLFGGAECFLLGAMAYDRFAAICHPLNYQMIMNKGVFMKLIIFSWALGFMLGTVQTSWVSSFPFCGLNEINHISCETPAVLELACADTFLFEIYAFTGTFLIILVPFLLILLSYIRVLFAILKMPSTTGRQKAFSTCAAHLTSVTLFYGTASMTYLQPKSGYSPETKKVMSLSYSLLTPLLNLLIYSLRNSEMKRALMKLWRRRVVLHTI
In short: as §1

OR10A7 (Homo sapiens) = molecular target: T9, OR10A7 (Homo sapiens) (UniProt Q8NGE5)
T9 sequence (whole entry): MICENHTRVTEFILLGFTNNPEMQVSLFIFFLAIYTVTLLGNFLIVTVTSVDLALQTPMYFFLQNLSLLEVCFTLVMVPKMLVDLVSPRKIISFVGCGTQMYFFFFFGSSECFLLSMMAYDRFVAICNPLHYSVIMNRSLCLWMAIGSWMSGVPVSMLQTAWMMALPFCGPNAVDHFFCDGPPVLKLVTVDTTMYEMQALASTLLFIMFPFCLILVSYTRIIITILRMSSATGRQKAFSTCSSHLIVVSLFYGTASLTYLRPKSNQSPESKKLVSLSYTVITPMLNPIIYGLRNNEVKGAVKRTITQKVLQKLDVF
In short: as §1

OR10AG1 (Homo sapiens) = molecular target: T10, OR10AG1 (Homo sapiens) (UniProt Q8NH19)
T10 sequence (whole entry): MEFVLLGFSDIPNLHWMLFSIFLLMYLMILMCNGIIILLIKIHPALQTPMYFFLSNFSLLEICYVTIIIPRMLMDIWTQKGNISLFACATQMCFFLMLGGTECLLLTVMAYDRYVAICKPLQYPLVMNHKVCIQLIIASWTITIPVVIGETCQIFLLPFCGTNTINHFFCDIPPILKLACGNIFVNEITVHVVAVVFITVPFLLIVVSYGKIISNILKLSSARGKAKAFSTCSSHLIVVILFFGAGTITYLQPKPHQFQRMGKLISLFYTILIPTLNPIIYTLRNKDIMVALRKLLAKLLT
In short: as §1

Measured: odorant receptor agonist call;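 note: active if original authors judged signal statistically different from baseline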

CS
inactive: all assays above
